Assay results as given in article PMC6328613.
These are yes or no findings as the source states them, for the method shown. Binding calls can cover weak binding; strength is not graded here. For some of these results: Where a sequence is shown, tags or fusion partners need not be part of it. For some of these results: Binding seen in cells or lysates may run through a third protein. Values belong to the molecule of their own block, whether it stands above or below them.

Key:
[1] = target: T1, Scyl1 (yeast two-hybrid fusion) (UniProt Q96KG9); assay: two-hybrid; Matchmaker Gold system, yeast strain Y2HGold; AD prey and BD bait co-transformed; growth on quadruple drop-out (SD/-Ade/-His/-Leu/-Trp) plates at 30 °C
T1 sequence: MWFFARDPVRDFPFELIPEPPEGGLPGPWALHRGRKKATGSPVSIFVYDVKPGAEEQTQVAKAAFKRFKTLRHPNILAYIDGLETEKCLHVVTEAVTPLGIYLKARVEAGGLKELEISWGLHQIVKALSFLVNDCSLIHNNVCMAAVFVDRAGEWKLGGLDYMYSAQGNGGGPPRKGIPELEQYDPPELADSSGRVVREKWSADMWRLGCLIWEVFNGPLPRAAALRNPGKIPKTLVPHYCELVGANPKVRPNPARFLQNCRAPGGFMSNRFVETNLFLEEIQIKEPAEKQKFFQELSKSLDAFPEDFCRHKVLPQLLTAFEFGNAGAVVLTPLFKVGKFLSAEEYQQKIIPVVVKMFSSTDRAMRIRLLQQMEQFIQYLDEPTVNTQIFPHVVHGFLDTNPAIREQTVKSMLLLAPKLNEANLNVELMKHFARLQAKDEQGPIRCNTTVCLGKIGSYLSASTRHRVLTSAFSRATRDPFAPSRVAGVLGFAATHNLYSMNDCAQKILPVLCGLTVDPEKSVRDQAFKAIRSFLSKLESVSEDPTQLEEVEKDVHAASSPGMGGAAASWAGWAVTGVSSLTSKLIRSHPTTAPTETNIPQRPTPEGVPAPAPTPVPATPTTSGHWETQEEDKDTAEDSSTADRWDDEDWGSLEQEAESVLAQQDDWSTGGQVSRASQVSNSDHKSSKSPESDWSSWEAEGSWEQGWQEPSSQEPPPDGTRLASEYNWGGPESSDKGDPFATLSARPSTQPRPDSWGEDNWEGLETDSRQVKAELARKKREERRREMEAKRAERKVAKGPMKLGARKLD

[2] = target: T2, GST-Scyl1 (bait of Fig. 4b) (UniProt Q96KG9); assay: pull-down; GST-tagged bait proteins with lysates of RPE-1 cells expressing GFP-tagged GORAB variants; bound fractions blotted for GFP; only the target purified
T2 sequence: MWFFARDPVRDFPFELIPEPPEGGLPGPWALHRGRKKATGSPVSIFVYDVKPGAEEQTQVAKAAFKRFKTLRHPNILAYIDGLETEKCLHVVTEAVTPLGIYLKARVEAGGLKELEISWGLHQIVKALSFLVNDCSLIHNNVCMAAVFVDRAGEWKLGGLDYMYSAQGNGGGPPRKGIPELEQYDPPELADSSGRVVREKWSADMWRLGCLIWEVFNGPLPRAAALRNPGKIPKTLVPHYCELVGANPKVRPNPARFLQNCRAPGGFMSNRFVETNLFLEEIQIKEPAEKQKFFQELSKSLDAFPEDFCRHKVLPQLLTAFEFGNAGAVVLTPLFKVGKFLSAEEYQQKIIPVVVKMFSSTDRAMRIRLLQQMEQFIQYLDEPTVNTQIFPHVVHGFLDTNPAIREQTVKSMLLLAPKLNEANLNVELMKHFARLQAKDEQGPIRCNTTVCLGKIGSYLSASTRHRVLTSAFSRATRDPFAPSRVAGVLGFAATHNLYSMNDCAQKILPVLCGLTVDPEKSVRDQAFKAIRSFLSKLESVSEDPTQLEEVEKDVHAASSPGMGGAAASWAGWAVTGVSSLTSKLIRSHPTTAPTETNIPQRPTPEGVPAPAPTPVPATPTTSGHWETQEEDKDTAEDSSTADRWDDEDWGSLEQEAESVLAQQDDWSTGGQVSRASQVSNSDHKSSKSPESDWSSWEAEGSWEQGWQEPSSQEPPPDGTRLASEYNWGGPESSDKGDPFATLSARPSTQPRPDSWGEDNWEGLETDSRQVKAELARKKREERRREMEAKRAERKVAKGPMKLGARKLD

GST-GORAB (human) [3] = assay: pull-down; 40 µg GST-tagged bait on glutathione resin with 2-3 mg sHeLa cell lysate (endogenous proteins), HMNT buffer, 4 h at 4 °C; western blotting; only the target purified
[4] = target: GORAB-mycFKBP (wild type) (human); assay: mitochondrial relocation assay (fluorescence microscopy); HeLaM cells co-transfected with mito-FRB and GORAB-mycFKBP (K190del or wild type); 2.5 µg/mL nocodazole 2 h, then 1 µM rapamycin 3 h; in some samples 5 µg/mL BFA for 15 min; recruitment of co-expressed or endogenous proteins to mitochondria
[5] = target: GORABK190del-mycFKBP (human); assay: as above
GST-GORAB (human) [6] = assay: pull-down; GST-tagged bait on glutathione resin with rat liver Golgi (RLG) membrane extract in HKMT buffer; western blotting; only the target purified
GST-GORAB (human) [7] = assay: pull-down; direct binding: 20 µg purified GST-tagged bait on glutathione resin with 20 µg MBP-tagged Scyl1 in HMNT buffer with 100 µg/mL BSA, 4 h at 4 °C; Coomassie Blue staining; both purified
[8] = target: GST-tagged GORAB fragment: N-terminal non-coil domain (human); assay: as above

Molecule: GFP-GORAB (wild type) (human)
binding [2]: binds

Molecule: GFP-GORAB K190del (human)
binding [2]: binds

B4: GFP-Scyl2 (protein, UniProt Q6P3W7 1-929)
chain: MESMLNKLKSTVTKVTADVTSAVMGNPVTREFDVGRHIASGGNGLAWKIFNGTKKSTKQEVAVFVFDKKLIDKYQKFEKDQIIDSLKRGVQQLTRLRHPRLLTVQHPLEESRDCLAFCTEPVFASLANVLGNWENLPSPISPDIKDYKLYDVETKYGLLQVSEGLSFLHSSVKMVHGNITPENIILNKSGAWKIMGFDFCVSSTNPSEQEPKFPCKEWDPNLPSLCLPNPEYLAPEYILSVSCETASDMYSLGTVMYAVFNKGKPIFEVNKQDIYKSFSRQLDQLSRLGSSSLTNIPEEVREHVKLLLNVTPTVRPDADQMTKIPFFDDVGAVTLQYFDTLFQRDNLQKSQFFKGLPKVLPKLPKRVIVQRILPCLTSEFVNPDMVPFVLPNVLLIAEECTKEEYVKLILPELGPVFKQQEPIQILLIFLQKMDLLLTKTPPDEIKNSVLPMVYRALEAPSIQIQELCLNIIPTFANLIDYPSMKNALIPRIKNACLQTSSLAVRVNSLVCLGKILEYLDKWFVLDDILPFLQQIPSKEPAVLMGILGIYKCTFTHKKLGITKEQLAGKVLPHLIPLSIENNLNLNQFNSFISVIKEMLNRLESEHKTKLEQLHIMQEQQKSLDIGNQMNVSEEMKVTNIGNQQIDKVFNNIGADLLTGSESENKEDGLQNKHKRASLTLEEKQKLAKEQEQAQKLKSQQPLKPQVHTPVATVKQTKDLTDTLMDNMSSLTSLSVSTPKSSASSTFTSVPSMGIGMMFSTPTDNTKRNLTNGLNANMGFQTSGFNMPVNTNQNFYSSPSTVGVTKMTLGTPPTLPNFNALSVPPAGAKQTQQRPTDMSALNNLFGPQKPKVSMNQLSQQKPNQWLNQFVPPQGSPTMGSSVMGTQMNVIGQSAFGMQGNPFFNPQNFAQPPTTMTNSSSASNDLKDLFG
binding [4]: no binding
binding [5]: no binding

B5: GFP-tagged Scyl3 (protein, UniProt Q8IZE3 1-742)
chain: MGSENSALKSYTLREPPFTLPSGLAVYPAVLQDGKFASVFVYKRENEDKVNKAAKHLKTLRHPCLLRFLSCTVEADGIHLVTERVQPLEVALETLSSAEVCAGIYDILLALIFLHDRGHLTHNNVCLSSVFVSEDGHWKLGGMETVCKVSQATPEFLRSIQSIRDPASIPPEEMSPEFTTLPECHGHARDAFSFGTLVESLLTILNEQVSADVLSSFQQTLHSTLLNPIPKCRPALCTLLSHDFFRNDFLEVVNFLKSLTLKSEEEKTEFFKFLLDRVSCLSEELIASRLVPLLLNQLVFAEPVAVKSFLPYLLGPKKDHAQGETPCLLSPALFQSRVIPVLLQLFEVHEEHVRMVLLSHIEAYVEHFTQEQLKKVILPQVLLGLRDTSDSIVAITLHSLAVLVSLLGPEVVVGGERTKIFKRTAPSFTKNTDLSLEDSPMCVVCSHHSQISPILENPFSSIFPKCFFSGSTPINSKKHIQRDYYNTLLQTGDPFSQPIKFPINGLSDVKNTSEDSENFPSSSKKSEEWPDWSEPEEPENQTVNIQIWPREPCDDVKSQCTTLDVEESSWDDCEPSSLDTKVNPGGGITATKPVTSGEQKPIPALLSLTEESMPWKSSLPQKISLVQRGDDADQIEPPKVSSQERPLKVPSELGLGEEFTIQVKKKPVKDPEMDWFADMIPEIKPSAAFLILPELRTEMVPKKDDVSPVMQFSSKFAAAEITEGEAEGWEEEGELNWEDNNW
binding [4]: no binding
binding [5]: no binding

Second part, the molecule after the results:

binding [1]: binds
Molecule: GORAB (yeast two-hybrid fusion) (human)

binding (GST-GORAB (human) [3]): binds
binding [4]: binds
binding [5]: binds
B1: Scyl1, endogenous in HeLa cells (protein, UniProt Q96KG9 1-808)
chain: MWFFARDPVRDFPFELIPEPPEGGLPGPWALHRGRKKATGSPVSIFVYDVKPGAEEQTQVAKAAFKRFKTLRHPNILAYIDGLETEKCLHVVTEAVTPLGIYLKARVEAGGLKELEISWGLHQIVKALSFLVNDCSLIHNNVCMAAVFVDRAGEWKLGGLDYMYSAQGNGGGPPRKGIPELEQYDPPELADSSGRVVREKWSADMWRLGCLIWEVFNGPLPRAAALRNPGKIPKTLVPHYCELVGANPKVRPNPARFLQNCRAPGGFMSNRFVETNLFLEEIQIKEPAEKQKFFQELSKSLDAFPEDFCRHKVLPQLLTAFEFGNAGAVVLTPLFKVGKFLSAEEYQQKIIPVVVKMFSSTDRAMRIRLLQQMEQFIQYLDEPTVNTQIFPHVVHGFLDTNPAIREQTVKSMLLLAPKLNEANLNVELMKHFARLQAKDEQGPIRCNTTVCLGKIGSYLSASTRHRVLTSAFSRATRDPFAPSRVAGVLGFAATHNLYSMNDCAQKILPVLCGLTVDPEKSVRDQAFKAIRSFLSKLESVSEDPTQLEEVEKDVHAASSPGMGGAAASWAGWAVTGVSSLTSKLIRSHPTTAPTETNIPQRPTPEGVPAPAPTPVPATPTTSGHWETQEEDKDTAEDSSTADRWDDEDWGSLEQEAESVLAQQDDWSTGGQVSRASQVSNSDHKSSKSPESDWSSWEAEGSWEQGWQEPSSQEPPPDGTRLASEYNWGGPESSDKGDPFATLSARPSTQPRPDSWGEDNWEGLETDSRQVKAELARKKREERRREMEAKRAERKVAKGPMKLGARKLD

binding (GST-GORAB (human) [6]): binds
B2: Scyl1, endogenous in rat liver Golgi membranes (protein, UniProt Q5M9F8 1-807)
chain: MWFFARDPVRDFPFELNPEPPEGGPPGPWVLHRGRKKATGSAVSIFVYDVKPGAEEQTQVAKAAFKRLKTLRHPNILAYIDGLETEKCLHIVTEAVTPLGTYLKARAEAGGLKEQELSWGLHQIVKALSFLVNDCNLIHNNVCMAAVFVDKAGEWKLGGLDYMYSAQGNGGGPPNKGIPELEQYDPPELADSSSRAVKEKWSADMWRLGCLIWEVFNGSLPRATALRNPGKIPKSLVTHYCELVGANPKVRPNPARFLQNCRAPGGFMSNRFVETNLFLEEIQIKEPAEKQKFFQELSKSLDSFPEDFCRHKVLPQLLTAFEFGNAGAVVLTPLFKVGKFLSAEEYQQKIIPVVVKMFSSTDRAMRVRLLQQMEQFIQYLDEPTVNTQIFPHVTHGFLDTNPAIREQTVKSMLLLAPKLSETNLNVELLKHFARLQAKDDQGPIRCNTTVCLGKIGSYLSASTRHRVLTSAFSRATKDPFAPSRVAGVLGFAATHNLYSMDDCAHKILPVLCGLTVDPEKSVRDQAFKTIRSFLSKLESVSEDPTQLAEIEKDVHAASSPGTGGAAASWAGWAVTGVSSLTSKLIRTHPTPVPSEAAVPQRPVPEGDPAPAPAPASATPATSGHRETQEEDKDAAEDSATADRWDDEDWGSLEQEAESVLAQQDDWSTKGQGNRAGQVSHSDHKSLDSHWSSWEVEGSWDQGWQEPSSVEPPPEGTRLASEYNWGGAEPSDKGDPFAALSVRPSTQPRPDPDSWGEDNWEGLEAESRQVKAELARKKREERRREMEAKRAEKKATKGPMKLGARKLD

binding (GST-GORAB (human) [7]): binds
binding [8]: binds
B3: MBP-Scyl1 (protein, UniProt Q96KG9 1-808)
chain: MWFFARDPVRDFPFELIPEPPEGGLPGPWALHRGRKKATGSPVSIFVYDVKPGAEEQTQVAKAAFKRFKTLRHPNILAYIDGLETEKCLHVVTEAVTPLGIYLKARVEAGGLKELEISWGLHQIVKALSFLVNDCSLIHNNVCMAAVFVDRAGEWKLGGLDYMYSAQGNGGGPPRKGIPELEQYDPPELADSSGRVVREKWSADMWRLGCLIWEVFNGPLPRAAALRNPGKIPKTLVPHYCELVGANPKVRPNPARFLQNCRAPGGFMSNRFVETNLFLEEIQIKEPAEKQKFFQELSKSLDAFPEDFCRHKVLPQLLTAFEFGNAGAVVLTPLFKVGKFLSAEEYQQKIIPVVVKMFSSTDRAMRIRLLQQMEQFIQYLDEPTVNTQIFPHVVHGFLDTNPAIREQTVKSMLLLAPKLNEANLNVELMKHFARLQAKDEQGPIRCNTTVCLGKIGSYLSASTRHRVLTSAFSRATRDPFAPSRVAGVLGFAATHNLYSMNDCAQKILPVLCGLTVDPEKSVRDQAFKAIRSFLSKLESVSEDPTQLEEVEKDVHAASSPGMGGAAASWAGWAVTGVSSLTSKLIRSHPTTAPTETNIPQRPTPEGVPAPAPTPVPATPTTSGHWETQEEDKDTAEDSSTADRWDDEDWGSLEQEAESVLAQQDDWSTGGQVSRASQVSNSDHKSSKSPESDWSSWEAEGSWEQGWQEPSSQEPPPDGTRLASEYNWGGPESSDKGDPFATLSARPSTQPRPDSWGEDNWEGLETDSRQVKAELARKKREERRREMEAKRAERKVAKGPMKLGARKLD
